In publication PMC7221550, “Membrane Phospholipids and Polyphosphates as Cofactors and Binding Molecules of SERPINA12 (vaspin)” (Molecules, 2020) one finds binding data, which are given here for three molecules.

Protein sequences, listed by entry. Tags and fused reporters are not part of them. Lines headed by an entry give the natural chain unless they say otherwise; changes in a name come on top.
UniProt P49862: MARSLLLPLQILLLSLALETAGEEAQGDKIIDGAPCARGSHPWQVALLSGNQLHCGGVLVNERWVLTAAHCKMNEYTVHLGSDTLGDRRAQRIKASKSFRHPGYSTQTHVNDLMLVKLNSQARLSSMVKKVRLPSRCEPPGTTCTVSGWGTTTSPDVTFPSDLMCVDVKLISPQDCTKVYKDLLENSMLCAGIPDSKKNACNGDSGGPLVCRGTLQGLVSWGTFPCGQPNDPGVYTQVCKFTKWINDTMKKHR

The test deals with Recombinant human kallikrein 7 (KLK7) (human, UniProt P49862 30-253). Description: SDS-PAGE of the covalent serpin-protease complex; vaspin incubated with 3 µM recombinant KLK7 (molar ratio protease/serpin 3:1) for 1 min (2 min in Figure 2), with or without PtdInsPs, unfractionated heparin or polyP; SDS-PAGE, Coomassie staining, densitometry of the 70 kDa complex band; both purified.

No constants are given. Whether binding was seen depends on the method and setting. Binding can be weak; no strength is given.

B1: Recombinant human vaspin wild type (visceral adipose tissue derived serine protease inhibitor, SERPINA12) (natural protein)
chain: KPSFSPRNYKALSEVQGWKQRMAAKELARQNMDLGFKLLKKLAFYNPGRNIFLSPLSISTAFSMLCLGAQDSTLDEIKQGFNFRKMPEKDLHEGFHYIIHELTQKTQDLKLSIGNTLFIDQRLQPQRKFLEDAKNFYSAETILTNFQNLEMAQKQINDFISQKTHGKINNLIENIDPGTVMLLANYIFFRARWKHEFDPNVTKEEDFFLEKNSSVKVPMMFRSGIYQVGYDDKLSCTILEIPYQKNITAIFILPDEGKLKHLEKGLQVDTFSRWKTLLSRRVVDVSVPRLHMTGTFDLKKTLSYIGVSKIFEEHGDLTKIAPHRSLKVGEAVHKAELKMDERGTEGAAGTGAQTLPMETPLVVKIDKPYLLLIYSEKIPSVLFLGKIVNPIGK
Turning to B1, the binding result is on record as “binds”.

B2: Non-heparin binding (NHB) vaspin variant K188A/K131A/R211A/K359A/R363A (protein, UniProt Q8IW75 22-414)
chain: KPSFSPRNYKALSEVQGWKQRMAAKELARQNMDLGFKLLKKLAFYNPGRNIFLSPLSISTAFSMLCLGAQDSTLDEIKQGFNFRKMPEKDLHEGFHYIIHELTQKTQDLALSIGNTLFIDQRLQPQRKFLEDAKNFYSAETILTNFQNLEMAQKQINDFISQKTHGAINNLIENIDPGTVMLLANYIFFAARWKHEFDPNVTKEEDFFLEKNSSVKVPMMFRSGIYQVGYDDKLSCTILEIPYQKNITAIFILPDEGKLKHLEKGLQVDTFSRWKTLLSRRVVDVSVPRLHMTGTFDLKKTLSYIGVSKIFEEHGDLTKIAPHRSLKVGEAVHKAELAMDEAGTEGAAGTGAQTLPMETPLVVKIDKPYLLLIYSEKIPSVLFLGKIVNPIGK
As for B2, the binding result is given as “binds”.

B3: Vaspin variant R211A/K359A (protein, UniProt Q8IW75 22-414)
chain: KPSFSPRNYKALSEVQGWKQRMAAKELARQNMDLGFKLLKKLAFYNPGRNIFLSPLSISTAFSMLCLGAQDSTLDEIKQGFNFRKMPEKDLHEGFHYIIHELTQKTQDLKLSIGNTLFIDQRLQPQRKFLEDAKNFYSAETILTNFQNLEMAQKQINDFISQKTHGKINNLIENIDPGTVMLLANYIFFAARWKHEFDPNVTKEEDFFLEKNSSVKVPMMFRSGIYQVGYDDKLSCTILEIPYQKNITAIFILPDEGKLKHLEKGLQVDTFSRWKTLLSRRVVDVSVPRLHMTGTFDLKKTLSYIGVSKIFEEHGDLTKIAPHRSLKVGEAVHKAELAMDERGTEGAAGTGAQTLPMETPLVVKIDKPYLLLIYSEKIPSVLFLGKIVNPIGK
For the molecule B3, the binding entry is recorded as “binds”.
